# Where a name gives a salt, the structure may show the parent alone. The list shows a part of the results. The calls rarely recur for the same compound in another form.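 In K562 cells expressing nanoluciferase-fused kinases, luminescence was recorded at 4 h intervals between 2 and 18 h, normalized as percent of control with DMSO at 100% and a positive control at 0%. A significant (2 sigma) signal drop marks a time point as decreased. The authors' rule for a hit is not shown and takes in more than the number of time points.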
# Chains of the proteins cited; added tags and fusions are not shown. Lines headed by an entry give the natural chain unless they say otherwise; changes in a name come on top.
# UniProt P11362, whole entry, looked up: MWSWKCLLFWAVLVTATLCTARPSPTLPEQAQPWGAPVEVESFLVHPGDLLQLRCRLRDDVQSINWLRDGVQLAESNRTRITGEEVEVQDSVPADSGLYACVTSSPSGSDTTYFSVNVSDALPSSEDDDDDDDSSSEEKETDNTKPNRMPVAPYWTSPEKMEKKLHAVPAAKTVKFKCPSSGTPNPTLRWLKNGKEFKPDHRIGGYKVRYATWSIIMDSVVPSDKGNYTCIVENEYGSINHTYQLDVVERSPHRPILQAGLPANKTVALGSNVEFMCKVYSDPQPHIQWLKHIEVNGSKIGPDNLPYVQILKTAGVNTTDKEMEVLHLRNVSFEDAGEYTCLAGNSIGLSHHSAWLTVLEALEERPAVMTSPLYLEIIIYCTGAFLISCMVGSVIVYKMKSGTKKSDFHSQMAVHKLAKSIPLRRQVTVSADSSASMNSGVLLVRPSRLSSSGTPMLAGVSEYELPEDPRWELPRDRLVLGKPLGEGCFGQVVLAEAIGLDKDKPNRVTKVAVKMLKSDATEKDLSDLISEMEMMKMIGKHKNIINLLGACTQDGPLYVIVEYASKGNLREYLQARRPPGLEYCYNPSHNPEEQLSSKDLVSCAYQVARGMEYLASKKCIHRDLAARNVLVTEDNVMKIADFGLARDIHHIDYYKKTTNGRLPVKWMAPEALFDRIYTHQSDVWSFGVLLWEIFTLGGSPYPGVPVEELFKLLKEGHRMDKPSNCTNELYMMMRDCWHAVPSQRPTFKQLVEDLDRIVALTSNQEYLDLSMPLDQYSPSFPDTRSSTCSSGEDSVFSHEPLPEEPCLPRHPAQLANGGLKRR
# UniProt P21802, whole entry, looked up: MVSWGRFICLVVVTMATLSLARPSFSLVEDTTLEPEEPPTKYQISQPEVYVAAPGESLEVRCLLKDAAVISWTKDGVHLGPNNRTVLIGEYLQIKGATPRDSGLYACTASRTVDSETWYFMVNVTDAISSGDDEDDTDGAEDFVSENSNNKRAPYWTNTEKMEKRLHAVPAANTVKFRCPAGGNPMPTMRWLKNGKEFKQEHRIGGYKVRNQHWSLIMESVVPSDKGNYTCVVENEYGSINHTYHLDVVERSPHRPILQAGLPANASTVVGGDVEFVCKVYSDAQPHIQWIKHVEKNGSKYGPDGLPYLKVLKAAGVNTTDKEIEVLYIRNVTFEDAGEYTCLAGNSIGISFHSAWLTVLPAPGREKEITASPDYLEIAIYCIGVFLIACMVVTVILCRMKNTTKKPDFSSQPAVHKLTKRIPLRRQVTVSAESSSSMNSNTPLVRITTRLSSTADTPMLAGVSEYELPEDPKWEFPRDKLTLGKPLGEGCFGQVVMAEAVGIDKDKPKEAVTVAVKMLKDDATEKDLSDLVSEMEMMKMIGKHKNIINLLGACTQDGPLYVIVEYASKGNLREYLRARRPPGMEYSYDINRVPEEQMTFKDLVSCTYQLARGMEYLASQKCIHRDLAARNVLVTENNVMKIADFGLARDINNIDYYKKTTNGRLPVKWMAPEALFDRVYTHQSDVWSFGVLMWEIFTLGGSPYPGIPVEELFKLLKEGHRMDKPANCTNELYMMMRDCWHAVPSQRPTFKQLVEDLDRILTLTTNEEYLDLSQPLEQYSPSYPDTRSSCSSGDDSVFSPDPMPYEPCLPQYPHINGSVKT
# UniProt P22607, whole entry, looked up: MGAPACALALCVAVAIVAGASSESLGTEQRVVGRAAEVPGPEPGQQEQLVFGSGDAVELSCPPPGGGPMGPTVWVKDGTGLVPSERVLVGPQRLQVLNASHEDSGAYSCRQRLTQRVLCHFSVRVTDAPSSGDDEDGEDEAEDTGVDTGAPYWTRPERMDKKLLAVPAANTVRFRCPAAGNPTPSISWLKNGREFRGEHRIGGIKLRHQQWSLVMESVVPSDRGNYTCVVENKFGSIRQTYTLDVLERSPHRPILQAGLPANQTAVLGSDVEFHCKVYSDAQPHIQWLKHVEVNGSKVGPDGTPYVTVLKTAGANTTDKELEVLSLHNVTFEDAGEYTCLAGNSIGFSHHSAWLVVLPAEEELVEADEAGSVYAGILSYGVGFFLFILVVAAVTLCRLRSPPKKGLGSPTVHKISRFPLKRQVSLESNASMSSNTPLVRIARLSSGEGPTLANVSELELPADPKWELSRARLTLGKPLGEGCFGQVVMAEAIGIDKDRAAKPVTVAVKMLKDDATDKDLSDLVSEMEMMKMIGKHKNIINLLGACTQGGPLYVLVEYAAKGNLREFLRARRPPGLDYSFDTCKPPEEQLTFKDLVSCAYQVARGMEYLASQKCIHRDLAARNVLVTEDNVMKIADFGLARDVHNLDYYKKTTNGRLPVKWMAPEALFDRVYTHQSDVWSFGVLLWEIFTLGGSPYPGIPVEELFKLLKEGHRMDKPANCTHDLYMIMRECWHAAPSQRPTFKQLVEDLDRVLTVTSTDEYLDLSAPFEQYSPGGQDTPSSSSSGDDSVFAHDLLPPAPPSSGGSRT
# UniProt P36888, whole entry: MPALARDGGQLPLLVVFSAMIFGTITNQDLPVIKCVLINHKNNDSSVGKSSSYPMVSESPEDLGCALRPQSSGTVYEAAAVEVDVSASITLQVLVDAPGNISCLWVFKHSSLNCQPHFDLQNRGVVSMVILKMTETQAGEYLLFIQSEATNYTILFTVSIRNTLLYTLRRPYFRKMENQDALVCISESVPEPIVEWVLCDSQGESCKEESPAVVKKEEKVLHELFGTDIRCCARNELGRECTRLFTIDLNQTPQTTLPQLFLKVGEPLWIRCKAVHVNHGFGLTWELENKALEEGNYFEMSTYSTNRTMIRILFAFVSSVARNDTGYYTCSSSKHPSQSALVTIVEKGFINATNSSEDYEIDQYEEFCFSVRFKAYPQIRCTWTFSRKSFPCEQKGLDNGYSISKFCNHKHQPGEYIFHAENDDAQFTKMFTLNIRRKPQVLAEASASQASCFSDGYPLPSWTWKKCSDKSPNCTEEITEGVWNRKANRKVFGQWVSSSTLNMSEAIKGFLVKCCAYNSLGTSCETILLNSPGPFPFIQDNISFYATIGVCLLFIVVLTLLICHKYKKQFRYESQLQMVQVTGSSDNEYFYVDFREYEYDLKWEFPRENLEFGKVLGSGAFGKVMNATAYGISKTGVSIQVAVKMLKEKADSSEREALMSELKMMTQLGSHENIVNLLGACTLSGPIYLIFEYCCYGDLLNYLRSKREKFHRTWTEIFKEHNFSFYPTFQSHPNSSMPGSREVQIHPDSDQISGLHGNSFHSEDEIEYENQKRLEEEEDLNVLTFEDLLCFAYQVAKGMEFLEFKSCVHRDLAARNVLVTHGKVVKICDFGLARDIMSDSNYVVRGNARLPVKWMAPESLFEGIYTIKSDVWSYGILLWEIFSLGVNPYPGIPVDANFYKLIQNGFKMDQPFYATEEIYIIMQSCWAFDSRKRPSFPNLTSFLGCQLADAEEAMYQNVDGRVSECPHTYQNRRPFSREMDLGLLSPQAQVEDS
# UniProt P06241, whole entry, looked up: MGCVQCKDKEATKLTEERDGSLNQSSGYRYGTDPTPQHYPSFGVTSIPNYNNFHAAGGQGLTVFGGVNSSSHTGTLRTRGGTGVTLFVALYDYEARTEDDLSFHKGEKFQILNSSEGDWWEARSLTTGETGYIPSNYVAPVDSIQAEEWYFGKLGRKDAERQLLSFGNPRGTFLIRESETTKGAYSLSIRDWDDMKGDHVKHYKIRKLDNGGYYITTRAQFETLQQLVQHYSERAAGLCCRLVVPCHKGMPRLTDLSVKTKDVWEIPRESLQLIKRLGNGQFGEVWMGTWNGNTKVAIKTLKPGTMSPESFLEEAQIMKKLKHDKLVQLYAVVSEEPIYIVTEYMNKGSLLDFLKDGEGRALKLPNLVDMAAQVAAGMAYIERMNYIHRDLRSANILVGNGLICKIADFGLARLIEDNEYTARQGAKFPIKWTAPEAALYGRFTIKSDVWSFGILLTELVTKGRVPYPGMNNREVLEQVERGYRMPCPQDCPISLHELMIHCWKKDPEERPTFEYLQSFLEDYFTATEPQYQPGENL
# UniProt P49840: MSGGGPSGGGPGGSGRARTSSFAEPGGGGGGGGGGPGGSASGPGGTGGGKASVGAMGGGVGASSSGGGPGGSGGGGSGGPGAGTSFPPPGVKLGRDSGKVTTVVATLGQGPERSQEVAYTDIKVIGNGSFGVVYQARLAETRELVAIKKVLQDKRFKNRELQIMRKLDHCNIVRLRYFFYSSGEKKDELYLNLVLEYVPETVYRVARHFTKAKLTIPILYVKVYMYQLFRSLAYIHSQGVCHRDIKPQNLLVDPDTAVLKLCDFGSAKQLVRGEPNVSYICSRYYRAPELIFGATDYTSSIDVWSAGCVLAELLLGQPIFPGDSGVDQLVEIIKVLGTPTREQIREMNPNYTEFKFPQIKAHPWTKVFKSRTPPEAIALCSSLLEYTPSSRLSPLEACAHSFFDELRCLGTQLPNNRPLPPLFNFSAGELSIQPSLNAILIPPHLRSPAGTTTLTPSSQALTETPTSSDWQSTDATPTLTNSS
# UniProt P14616: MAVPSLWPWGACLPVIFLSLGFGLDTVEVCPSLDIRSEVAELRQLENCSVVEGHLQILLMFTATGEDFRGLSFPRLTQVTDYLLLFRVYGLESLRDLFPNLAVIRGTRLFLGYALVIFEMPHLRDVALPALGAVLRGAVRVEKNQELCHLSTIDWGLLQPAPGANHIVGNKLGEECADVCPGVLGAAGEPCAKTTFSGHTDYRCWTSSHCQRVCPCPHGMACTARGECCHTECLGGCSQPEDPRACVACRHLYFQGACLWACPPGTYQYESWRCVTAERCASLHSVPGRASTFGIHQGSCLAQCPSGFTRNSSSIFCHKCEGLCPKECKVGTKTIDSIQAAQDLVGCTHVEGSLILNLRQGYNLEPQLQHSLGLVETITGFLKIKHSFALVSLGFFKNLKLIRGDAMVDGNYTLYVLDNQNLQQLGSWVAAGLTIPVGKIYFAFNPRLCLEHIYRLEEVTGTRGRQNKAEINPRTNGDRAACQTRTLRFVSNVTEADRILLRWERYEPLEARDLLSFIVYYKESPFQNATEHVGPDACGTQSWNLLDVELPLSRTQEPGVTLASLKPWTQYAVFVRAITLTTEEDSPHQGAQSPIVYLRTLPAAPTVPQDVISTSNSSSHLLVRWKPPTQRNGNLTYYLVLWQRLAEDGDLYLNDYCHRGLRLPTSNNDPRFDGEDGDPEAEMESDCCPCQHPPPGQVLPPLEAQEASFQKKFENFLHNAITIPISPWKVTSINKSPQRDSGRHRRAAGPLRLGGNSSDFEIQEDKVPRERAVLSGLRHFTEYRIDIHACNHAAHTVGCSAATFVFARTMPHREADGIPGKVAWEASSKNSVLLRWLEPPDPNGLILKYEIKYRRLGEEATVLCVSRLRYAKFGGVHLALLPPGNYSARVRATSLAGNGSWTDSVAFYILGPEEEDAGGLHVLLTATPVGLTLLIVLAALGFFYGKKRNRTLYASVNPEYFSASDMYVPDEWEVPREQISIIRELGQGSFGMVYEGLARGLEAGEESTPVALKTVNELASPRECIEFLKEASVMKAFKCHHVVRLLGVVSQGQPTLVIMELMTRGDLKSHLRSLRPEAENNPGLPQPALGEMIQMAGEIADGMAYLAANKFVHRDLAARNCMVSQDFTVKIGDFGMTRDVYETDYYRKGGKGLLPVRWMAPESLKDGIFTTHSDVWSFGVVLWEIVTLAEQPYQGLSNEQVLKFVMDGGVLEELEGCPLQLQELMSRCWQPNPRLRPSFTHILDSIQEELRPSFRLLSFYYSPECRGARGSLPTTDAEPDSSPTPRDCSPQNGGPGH
# Tests used:
# Assay in all cases: kinase-Nluc reporter destabilization hit call (1 = scored as downregulated) (binary); higher = compound decreases kinase abundance
# Conditions in all cases: K562; 2-18 h
# ERN1 = ERN1 (UniProt O75460)
# FGFR1 = FGFR1 (UniProt P11362)
# FGFR2 = FGFR2 (UniProt P21802)
# FGFR3 = FGFR3 (UniProt P22607)
# FGR = FGR (UniProt P09769)
# FLT3 = FLT3 (UniProt P36888)
# FYN = FYN (UniProt P06241)
# GSK3A = GSK3A (UniProt P49840)
# HER2 = HER2 (UniProt P04626)
# INSRR = INSRR (UniProt P14616)
SMILES,kinase-Nluc reporter destabilization hit call (ERN1),kinase-Nluc reporter destabilization hit call (FGFR1),kinase-Nluc reporter destabilization hit call (FGFR2),kinase-Nluc reporter destabilization hit call (FGFR3),kinase-Nluc reporter destabilization hit call (FGR),kinase-Nluc reporter destabilization hit call (FLT3),kinase-Nluc reporter destabilization hit call (FYN),kinase-Nluc reporter destabilization hit call (GSK3A),kinase-Nluc reporter destabilization hit call (HER2),kinase-Nluc reporter destabilization hit call (INSRR)
Nc1ncnc2c1c(-c1cccc(OCc3ccccc3)c1)cn2C1CC(CN2CCC2)C1 (stereo not given) (2.5 µM),inactive: 0,inactive: 0,inactive: 0,inactive: 0,inactive: 0,inactive: 0,inactive: 0,inactive: 0,inactive: 0,inactive: 0
CCc1cc2c(cc1N1CCC(N3CCOCC3)CC1)C(C)(C)c1[nH]c3cc(C#N)ccc3c1C2=O [Alectinib] (10 µM),inactive: 0,inactive: 0,inactive: 0,inactive: 0,inactive: 0,inactive: 0,inactive: 0,inactive: 0,inactive: 0,inactive: 0
Cn1cc(-c2ccc3c(c2)CCN3C(=O)Cc2cccc(C(F)(F)F)c2)c2c(N)ncnc21 (2.5 µM),inactive: 0,inactive: 0,inactive: 0,inactive: 0,inactive: 0,inactive: 0,inactive: 0,inactive: 0,inactive: 0,inactive: 0
O=C1N[C@@H](Cc2c[nH]c3ccccc23)C(=O)N2CCC[C@@H]12 [Brevianamide F] (10 µM),inactive: 0,inactive: 0,inactive: 0,inactive: 0,inactive: 0,inactive: 0,inactive: 0,inactive: 0,inactive: 0,inactive: 0
CCNc1nc(Nc2cc(F)c(C(=O)N3CCOCC3)cc2OC)ncc1C(F)(F)F [GNE-7915 (tosylate)] (10 µM),inactive: 0,inactive: 0,inactive: 0,inactive: 0,inactive: 0,inactive: 0,inactive: 0,inactive: 0,inactive: 0,inactive: 0
Cn1nccc1Nc1nccc(-c2ccn([C@H](CO)c3ccc(Cl)c(F)c3)c(=O)c2)n1 [Ravoxertinib hydrochloride] (10 µM),inactive: 0,inactive: 0,inactive: 0,inactive: 0,inactive: 0,inactive: 0,inactive: 0,inactive: 0,inactive: 0,inactive: 0
Cn1ncc(Cl)c1-c1cc(C(=O)N[C@H](CN)Cc2ccc(F)c(F)c2)oc1Cl [Uprosertib] (10 µM),inactive: 0,inactive: 0,inactive: 0,inactive: 0,inactive: 0,inactive: 0,inactive: 0,inactive: 0,inactive: 0,inactive: 0
COc1cc2ncnc(Nc3ccc(Cl)cc3F)c2cc1OC (10 µM),inactive: 0,inactive: 0,inactive: 0,inactive: 0,inactive: 0,inactive: 0,inactive: 0,inactive: 0,inactive: 0,inactive: 0
COc1ccc(Cl)c(Nc2nc3ccccc3nc2NS(=O)(=O)c2cccc(NC(=O)C(C)(C)N)c2)c1 [Pilaralisib] (10 µM),inactive: 0,inactive: 0,inactive: 0,inactive: 0,inactive: 0,inactive: 0,inactive: 0,inactive: 0,inactive: 0,inactive: 0
Cn1nccc1Nc1nccc(-c2ccn([C@H](CO)c3ccc(Cl)c(F)c3)c(=O)c2)n1 [Ravoxertinib] (10 µM),inactive: 0,inactive: 0,inactive: 0,inactive: 0,inactive: 0,inactive: 0,inactive: 0,inactive: 0,inactive: 0,inactive: 0
Cn1cnc(Cn2ccc3ccc(CNCc4[nH]c5ccccc5c4[C@H]4NC(=O)c5ccc(O)cc54)cc32)c1 (10 µM),inactive: 0,inactive: 0,inactive: 0,inactive: 0,inactive: 0,inactive: 0,inactive: 0,inactive: 0,inactive: 0,inactive: 0
O=C(NOCC(O)CO)c1cc(Br)c(F)c(F)c1Nc1ccc(I)cc1F (stereo not given) (2.5 µM),inactive: 0,inactive: 0,inactive: 0,inactive: 0,inactive: 0,inactive: 0,inactive: 0,inactive: 0,inactive: 0,inactive: 0
CC#CC(=O)N1CC[C@@H](n2c(=O)n(-c3ccc(Oc4ccccc4)cc3)c3c(N)ncnc32)C1 [Tirabrutinib] (10 µM),inactive: 0,inactive: 0,inactive: 0,inactive: 0,inactive: 0,inactive: 0,inactive: 0,inactive: 0,inactive: 0,inactive: 0
NC(=O)c1ccc(-c2nc(-c3ccc4c(c3)OCCO4)c(-c3ccccn3)[nH]2)cc1 (10 µM),inactive: 0,inactive: 0,inactive: 0,inactive: 0,inactive: 0,inactive: 0,active: 1,inactive: 0,inactive: 0,inactive: 0
Nc1ncnc2c1c(-c1ccc(Oc3ccccc3)cc1)nn2C1CCCC1 (2.5 µM),inactive: 0,inactive: 0,inactive: 0,inactive: 0,inactive: 0,inactive: 0,inactive: 0,inactive: 0,inactive: 0,inactive: 0

# Part of the list above, as tab-separated lines:
SMILES	kinase-Nluc reporter destabilization hit call (ERN1)	kinase-Nluc reporter destabilization hit call (FGFR1)	kinase-Nluc reporter destabilization hit call (FGFR2)	kinase-Nluc reporter destabilization hit call (FGFR3)	kinase-Nluc reporter destabilization hit call (FGR)	kinase-Nluc reporter destabilization hit call (FLT3)	kinase-Nluc reporter destabilization hit call (FYN)	kinase-Nluc reporter destabilization hit call (GSK3A)	kinase-Nluc reporter destabilization hit call (HER2)	kinase-Nluc reporter destabilization hit call (INSRR)
COc1cc2ncnc(Nc3ccc(Cl)cc3F)c2cc1OC (10 µM)	inactive: 0	inactive: 0	inactive: 0	inactive: 0	inactive: 0	inactive: 0	inactive: 0	inactive: 0	inactive: 0	inactive: 0
COc1ccc(Cl)c(Nc2nc3ccccc3nc2NS(=O)(=O)c2cccc(NC(=O)C(C)(C)N)c2)c1 [Pilaralisib] (10 µM)	inactive: 0	inactive: 0	inactive: 0	inactive: 0	inactive: 0	inactive: 0	inactive: 0	inactive: 0	inactive: 0	inactive: 0
Cn1nccc1Nc1nccc(-c2ccn([C@H](CO)c3ccc(Cl)c(F)c3)c(=O)c2)n1 [Ravoxertinib] (10 µM)	inactive: 0	inactive: 0	inactive: 0	inactive: 0	inactive: 0	inactive: 0	inactive: 0	inactive: 0	inactive: 0	inactive: 0

# Source: the supplement of paper PMC12823440, “Inhibitors supercharge kinase turnover through native proteolytic circuits” (Nature, 2025)
